According to PubChem BioAssay AID2685 (National Center for Advancing Translational Sciences (NCATS), 2010):
Some of the results follow. Further columns of the screen follow, without active or inactive calls. Compounds called inactive in the main read-out are mostly missing here. Words in brackets tell the shape of the fitted curve; partial curves, single points and poor fits give uncertain potencies.

Assay: qHTS Assay for Lipid Storage Modulators in Drosophila S3 Cells;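 as to cell number change: cells counted by Cell Tracker Red CMTPX staining in the red channel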
Conditions: BODIPY lipid droplet fluorescence, 18-24 h; for cell number change: measured here: cell count max response, cells fed with added oleic acid
Method in brief: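 Drosophila S3 cells got compounds at several concentrations plus oleic acid (400 uM solution). Laser-scanning cytometry with 488 nm excitation read lipid droplets at 500-530 nm and cells at 575-640 nm. Percent activity was relative to 20 uM Triacsin C.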

[1] = measured here: cell number channel AC50, cells fed with added oleic acid
[2] = measured here: lipid fluorescence (Fed channel) AC50, cells fed with added oleic acid

SMILES	AC50 [1]	cell number change	AC50 [2]
COc1cc2c(C)nc(C)c(C#N)c2cc1OC	6.51 µM [rising, single point]	–	–
CC(=O)Nc1ccc(-n2nnnc2SCC(=O)NCc2cccs2)cc1	0.00461 µM [rising, full curve, poor fit]	3.7%	–
Cc1ccc(S(=O)(=O)N2Cc3ccccc3CC2C(=O)Nc2ccc3c(c2)OCO3)cc1 (stereo unspecified)	5.17 µM [rising, full curve]	60.7%	3.26 µM [falling, single point]
CSc1ccccc1-c1nnc(NC(=O)Cc2ccccc2)o1	–	9.88%	6.51 µM [rising, single point]
Cc1ccc(C(CCN)c2ccco2)cc1 (stereo unspecified)	–	0.156%	0.184 µM [falling, full curve]
COc1ccc(/C=N/NC(=O)CN(C2=NS(=O)(=O)c3ccccc32)c2ccccc2)cc1	13 µM [falling, partial curve]	-49.8%	0.461 µM [falling, full curve, poor fit]
O=C(CSc1nccn1-c1cccc(Cl)c1)NC1CCCC1	–	-20.5%	29.1 µM [rising, single point]
O=C(NCCO)C(F)(F)C(F)(F)C(F)(F)OC(F)(C(=O)NCCO)C(F)(F)F (stereo unspecified)	–	1.19%	29.1 µM [rising, single point]
COc1ccc(S(=O)(=O)N2CCOCC2)cc1C(=O)Nc1ccon1	–	–	29.1 µM [falling, single point]
COCCn1c(C)cc(C(=O)COC(=O)c2ccc([N+](=O)[O-])o2)c1C	–	-3.83%	–
COC(=O)C(NC(C)=O)(Nc1nc2c(s1)CCCC2)C(F)(F)F (stereo unspecified)	–	0.571%	6.51 µM [falling, partial curve]
COc1ccccc1C(=O)NC(=O)COC(=O)c1ncc(Cl)c(Cl)c1Cl	29.1 µM [falling, single point]	-43.7%	–
CC(C)N(C(=O)COC(=O)c1ccc(Cl)nc1)C(C)C	–	-27.2%	1.46 µM [falling, full curve]
Cc1ccc(-c2nn3c(C)nnc3c3ccccc23)cc1S(=O)(=O)NCc1ccco1	0.00411 µM [falling, full curve, poor fit]	-23.5%	–
Clc1cccc(-c2ccnc3nc(-n4cccc4)nn23)c1	–	-46.3%	0.206 µM [rising, full curve, poor fit]
COc1ccccc1N(CC(=O)Nc1ccccc1C(=O)N1CCCC1)S(C)(=O)=O	–	–	16.4 µM [falling, partial curve]
CCC(Cc1ccccc1)NC(=O)c1cc(S(=O)(=O)N2CCCCC2)c[nH]1 (stereo unspecified)	–	12.3%	18.4 µM [falling, single point]
Cc1ccccc1C(=O)c1cccn1CC(=O)N1CCCCC1	0.651 µM [rising, full curve, poor fit]	-2.31%	–
Cc1cccc2cc(C#N)c(SCc3nnc(-c4ccccc4[N+](=O)[O-])o3)nc12	–	9.56%	0.291 µM [rising, full curve, poor fit]
Cc1cc(C)cc(C(=O)N2CC(=O)Nc3ccccc32)c1	–	19.6%	–

Three successive entries out of the list so far, quoted:
SMILES	AC50 [1]	cell number change	AC50 [2]
CC(C)N(C(=O)COC(=O)c1ccc(Cl)nc1)C(C)C	–	-27.2%	1.46 µM [falling, full curve]
Cc1ccc(-c2nn3c(C)nnc3c3ccccc23)cc1S(=O)(=O)NCc1ccco1	0.00411 µM [falling, full curve, poor fit]	-23.5%	–
Clc1cccc(-c2ccnc3nc(-n4cccc4)nn23)c1	–	-46.3%	0.206 µM [rising, full curve, poor fit]

Carrying on:

SMILES	AC50 [1]	cell number change	AC50 [2]
CCN(CC)S(=O)(=O)c1ccc(N(C)Cc2cccnc2)nc1	4.61 µM [rising, partial curve]	–	29.1 µM [rising, single point]
Cc1c(C(=O)OCC(=O)c2c(N)n(CC(C)C)c(=O)n(C)c2=O)oc2ccccc12	–	-24.5%	23.1 µM [falling, single point]
Oc1ccccc1CNc1nc2ccccc2n1CCN1CCCCC1	–	–	16.4 µM [rising, partial curve]
Nn1c(SCC(=O)NC(=O)NCc2ccco2)nnc1-c1ccc(OC(F)F)cc1	–	-1.24%	1.64 µM [falling, partial curve]
N#CC1C(=O)NC(N2CCN(c3ccccc3)CC2)=NC12CCCCC2 (stereo unspecified)	–	-4.63%	–
O=C(COC(=O)Cc1ccsc1)Nc1ccccc1	1.16 µM [falling, partial curve, poor fit]	-8.82%	1.46 µM [falling, partial curve, poor fit]
COC(=O)c1cc(CN2CCN(c3ccccc3)CC2)ccc1O	–	15%	29.1 µM [rising, single point]
CC(C)Oc1cccc(C(=O)C2CCCN(C(=O)CCn3cnnn3)C2)c1 (stereo unspecified)	–	14.4%	–
O=C(NCCCN1CCOCC1)c1ccc(Cl)s1	0.0517 µM [falling, full curve, poor fit]	-19.5%	0.146 µM [falling, full curve, poor fit]
CC1CC(C)(C)N(C(=O)CN2C(=O)CCC2=O)c2ccccc21 (stereo unspecified)	10.3 µM [rising, single point]	34.9%	–
COc1ccc(C2=NOC(C(=O)Nc3cc(Br)ccc3O)C2)cc1OC (stereo unspecified)	25.9 µM [falling, partial curve]	-60.7%	0.0082 µM [falling, full curve, poor fit]
CCc1noc(C)c1C(=O)N1CCCC1	–	-20.2%	1.3 µM [falling, full curve]
Cc1ccc(S(=O)(=O)Oc2ccc3ccc(O)cc3c2)cc1	–	-2.64%	–
COc1ccccc1NC(=O)Nc1nn(C)c2cccc(N(C)C)c12	–	-0.725%	2.91 µM [rising, single point]
C/C(CC(=O)Nc1ccc(N(C)C)cc1)=N\NC(=O)c1ccc(Cl)cc1Cl	–	19.3%	0.58 µM [falling, single point]
Cc1ccc(S(=O)(=O)NC(C)(C)CN2CCCCC2)cc1	–	10.6%	4.11 µM [rising, single point]
O=C(CSc1nc2cc(Cl)ccc2o1)N1CCOCC1	25.9 µM [falling, partial curve, poor fit]	-66.8%	23.1 µM [falling, partial curve]
COc1ccc(CN2CCC(C(=O)NCCc3ccc(OC)c(OC)c3)CC2)c(OC)c1	–	10.7%	–
Cc1nonc1CC(=O)NC1CCCc2c1cnn2-c1ccc(F)cc1F (stereo unspecified)	29.1 µM [falling, single point]	-37.1%	0.13 µM [rising, full curve, poor fit]
CC(=O)N1c2ccc(S(=O)(=O)N3CCC(C(=O)Nc4cccc(Cl)c4)CC3)cc2CC1C (stereo unspecified)	0.366 µM [falling, partial curve, poor fit]	-39.9%	0.326 µM [falling, partial curve]

SMILES	AC50 [1]	cell number change	AC50 [2]
CCOC(=O)/C=C/C(=O)OCC(=O)Nc1c(Cl)cccc1Cl	4.61 µM [falling, full curve]	-52.3%	5.8 µM [falling, full curve]
COc1ccc(CC(=O)OCC(=O)NC2CCCCC2)cc1	–	9.02%	6.51 µM [rising, single point]
Cc1cc(=O)oc2cc(NC(=O)COc3cccc(C(F)(F)F)c3)ccc12	–	-10.9%	10.3 µM [falling, partial curve]
CC(=O)C1=C(NC(=O)c2ccc(C(F)(F)F)cc2)C[C@@H]2[C@H]1C2(C)C	–	11.8%	5.8 µM [rising, partial curve]
Cc1ccc(NC(=O)COc2nsnc2N2CCOCC2)cc1Cl	–	-30.5%	29.1 µM [falling, single point]
COCCN(C(=O)c1cc2c(s1)CCC2)c1c(N)n(CC(C)C)c(=O)[nH]c1=O	–	-7.43%	–
Cc1cc(=O)oc2c(C(=O)/C=C\c3cccs3)c(O)ccc12	–	-13.5%	–
O=C(O)CC(=O)Nc1ccccc1	0.291 µM [falling, full curve]	-25.4%	0.461 µM [falling, full curve]
COc1ccc(CNC(=O)COC(=O)[C@H](Cc2c[nH]c3ccccc23)NC(=O)c2cccs2)cc1	–	1.47%	3.66 µM [rising, partial curve]
O=C(C1COc2ccccc2O1)N1CCN(c2ccccc2F)CC1 (stereo unspecified)	–	-5.69%	4.61 µM [rising, partial curve]
COc1ccc(C(=O)NC2CCN(C(=O)Nc3ccccc3Cl)CC2)cc1	–	-0.552%	0.82 µM [falling, full curve, poor fit]
COc1ccc(CSCC(=O)Nc2ccc(S(=O)(=O)N3CCCCCC3)cc2)cc1	13 µM [falling, partial curve]	-43.9%	14.6 µM [falling, partial curve]
COc1ccc(C(=O)Nc2nccs2)cc1[N+](=O)[O-]	–	8.71%	18.4 µM [rising, single point]
CCCn1c(N)c(N(CCOC)C(=O)CSc2cc(C)c3cccc(C)c3n2)c(=O)[nH]c1=O	–	-0.137%	1.84 µM [rising, partial curve, poor fit]
COc1cc(OC)cc(C(=O)N[C@H](C(=O)Nc2ccc(NC(C)=O)cc2)C(C)C)c1	29.1 µM [falling, single point]	-32%	13 µM [falling, partial curve]
COCCn1c(=NC(=O)C2COc3ccccc3O2)sc2cc(S(N)(=O)=O)ccc21 (stereo unspecified)	–	23.3%	1.84 µM [rising, partial curve]
CC(=O)c1cccc(N=Cc2c(O)c3ccccc3oc2=O)c1	–	-0.552%	–
Cc1ccc(S(=O)(=O)N2[C@@H](c3cccc(Cl)c3)C(C(=O)O)=CC[C@H]2c2ccc(C(C)C)cc2)cc1	–	-25.2%	29.1 µM [falling, single point]
Cc1cc(C)c2c(N)c(C(=O)N/N=C/c3cccnc3)sc2n1	–	-22.7%	–
